Data as given in PubChem BioAssay AID1671195 (Yale University, 2021)
In all, the deposit lists about 22,000 reagents; this is a random part of them. Over the whole deposit, about 1,510 (6.9%) are marked active. 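Active includes knockdowns raising or lowering LDL uptake; positive z-scores mean more uptake, negative mean less.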 A number with no mark means an inactive call. Reagents against one gene are numbered here.

- Purpose: 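Regulators of LDL receptor activity judged by labelled LDL uptake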 (primary screen)
- Cells: human Huh7 hepatoma cells
- Knock-down reagent: siRNA pool against human genes, 18 nM
- Time to read-out: about 2 to 2.5 days of knockdown, then 8 h LDL uptake
- Challenge: DiI-labelled LDL at 30 µg/ml for 8 h, in lipoprotein-deficient serum medium
- Read-out: 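Fluorescent LDL signal imaged in cells, scaled to the plate median, robust z-score for each replicate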
- Direction: robust z-score: higher = more LDL uptake after knockdown
- Active means: 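Active when two or more replicates show a robust z-score above 2 or below -2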

| gene knocked down | pool no. | robust z-score, replicate 1 | robust z-score, replicate 2 | robust z-score, replicate 3 |
| --- | --- | --- | --- | --- |
| SKA2 (GeneID 348235) | 1 | -1.11 | -1.02 | -0.805 |
| KRIT1 (GeneID 889) | 1 | -0.582 | -0.647 | -1.02 |
| FLJ44955 (retired record) (GeneID 401278) | 1 | 0.362 | -0.0194 | -0.209 |
| APAF1 (GeneID 317) | 1 | 1.06 | -0.0553 | 0.149 |
| LOC389167 (retired record) (GeneID 389167) | 1 | 2.93 (active) | 2.3 | 2.69 |
| RHCG (GeneID 51458) | 1 | -0.0313 | 0.273 | -0.337 |
| AKR1C6P (GeneID 389932) | 1 | 0.676 | 0.803 | 0.872 |
| ADH5 (GeneID 128) | 1 | 0.813 | 0.884 | 0.797 |
| KAT6B (GeneID 23522) | 1 | -1.16 | -0.769 | -1.75 |
| DPP8 (GeneID 54878) | 1 | -1.54 | -1.46 | -1.57 |
| LOC441751 (retired record) (GeneID 441751) | 1 | 0.8 | 1.15 | 0.87 |
| PRSS21 (GeneID 10942) | 1 | 0.249 | 0.291 | 0.301 |
| P2RY1 (GeneID 5028) | 1 | 0.666 | 0.13 | 1.12 |
| TMOD3 (GeneID 29766) | 1 | 0.281 | 0.0696 | 0.234 |
| SUPT20H (GeneID 55578) | 1 | -0.157 | 0.946 | 0.0366 |
| OSTC (GeneID 58505) | 1 | -0.384 | -0.833 | -0.698 |
| MUC12 (GeneID 10071) | 1 | 0.582 | 0.876 | 0.271 |
| MUC12 (GeneID 10071) | 2 | 0.563 | -0.019 | 0.204 |
| METTL5 (GeneID 29081) | 1 | 0.325 | 0.22 | -0.234 |
| LUM (GeneID 4060) | 1 | 0.146 | -0.641 | 0.67 |
| IQSEC1 (GeneID 9922) | 1 | -0.075 | 1.1 | 2.76 |
| LOC401101 (retired record) (GeneID 401101) | 1 | -0.0552 | -0.381 | -0.246 |
| MYL12B (GeneID 103910) | 1 | 0.0867 | -0.00755 | 0.255 |
| GTF2B (GeneID 2959) | 1 | 2.01 | 1.69 | 1.62 |
| APOL2 (GeneID 23780) | 1 | 0.0844 | 0.00599 | -0.395 |
| MARVELD2 (GeneID 153562) | 1 | 0.0196 | -0.604 | 0.518 |
| HSD11B1 (GeneID 3290) | 1 | -0.69 | -0.926 | -0.389 |
| EXTL2 (GeneID 2135) | 1 | 0.138 | 0.0557 | 0.695 |
